Source: patent US6127119, “Nucleic acid ligands of tissue target” (NeXstar Pharmaceuticals, Inc.)

Chains of the proteins cited; added tags and fusions are not shown. A line that says so, or that is headed by a name, gives the form on record, which may keep a tag or linker.
Fibrinogen (Homo sapiens), one chain, as listed by the source, chain 2 of 3: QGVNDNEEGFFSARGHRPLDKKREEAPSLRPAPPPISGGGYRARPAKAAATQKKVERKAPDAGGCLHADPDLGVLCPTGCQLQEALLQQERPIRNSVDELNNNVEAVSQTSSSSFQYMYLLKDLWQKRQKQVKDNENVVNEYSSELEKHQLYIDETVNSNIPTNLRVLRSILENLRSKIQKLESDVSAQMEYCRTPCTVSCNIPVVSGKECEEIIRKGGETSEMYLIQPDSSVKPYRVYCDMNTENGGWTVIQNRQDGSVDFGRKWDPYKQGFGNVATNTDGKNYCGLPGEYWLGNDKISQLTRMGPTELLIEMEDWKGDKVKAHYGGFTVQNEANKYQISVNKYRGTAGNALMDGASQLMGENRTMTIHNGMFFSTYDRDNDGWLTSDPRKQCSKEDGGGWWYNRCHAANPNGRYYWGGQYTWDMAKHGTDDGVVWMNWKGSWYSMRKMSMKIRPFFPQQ
Fibrinogen (Homo sapiens), one chain, as listed by the source, chain 3 of 3: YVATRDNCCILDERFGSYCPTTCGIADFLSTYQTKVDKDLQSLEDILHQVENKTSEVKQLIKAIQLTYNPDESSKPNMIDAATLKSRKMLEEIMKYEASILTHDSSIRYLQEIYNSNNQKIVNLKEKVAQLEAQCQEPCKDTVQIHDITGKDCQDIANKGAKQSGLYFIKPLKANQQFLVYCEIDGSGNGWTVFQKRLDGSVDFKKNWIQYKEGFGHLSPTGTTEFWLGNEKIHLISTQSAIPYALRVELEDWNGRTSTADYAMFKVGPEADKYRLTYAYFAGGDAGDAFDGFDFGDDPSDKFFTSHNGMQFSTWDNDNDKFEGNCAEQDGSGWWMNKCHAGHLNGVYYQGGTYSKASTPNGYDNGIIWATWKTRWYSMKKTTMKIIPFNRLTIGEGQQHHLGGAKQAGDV
Fibrinogen (Homo sapiens), one chain, as listed by the source, chain 1 of 3: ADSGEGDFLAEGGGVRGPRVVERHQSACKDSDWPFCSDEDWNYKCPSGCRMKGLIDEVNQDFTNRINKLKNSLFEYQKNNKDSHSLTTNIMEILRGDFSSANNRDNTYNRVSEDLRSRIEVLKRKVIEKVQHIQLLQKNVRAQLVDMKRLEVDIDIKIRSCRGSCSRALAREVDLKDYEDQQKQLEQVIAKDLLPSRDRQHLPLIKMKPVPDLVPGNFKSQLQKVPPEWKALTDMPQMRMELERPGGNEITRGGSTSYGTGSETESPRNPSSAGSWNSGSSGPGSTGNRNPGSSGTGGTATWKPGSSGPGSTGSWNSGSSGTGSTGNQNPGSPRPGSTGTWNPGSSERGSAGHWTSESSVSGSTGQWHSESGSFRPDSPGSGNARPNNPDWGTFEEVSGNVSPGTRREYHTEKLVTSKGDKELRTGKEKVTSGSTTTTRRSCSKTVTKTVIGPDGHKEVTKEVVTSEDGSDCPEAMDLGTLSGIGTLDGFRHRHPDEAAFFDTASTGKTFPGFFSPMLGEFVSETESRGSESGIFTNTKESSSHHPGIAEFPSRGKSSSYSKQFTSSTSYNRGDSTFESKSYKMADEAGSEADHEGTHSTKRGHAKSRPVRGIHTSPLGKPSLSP

System: Fibrinogen (Homo sapiens)
Experiment: filter binding
Details: 2'-F pyrimidines
[1] = low class, Motif II extrapolated Kd >100 uM
[2] = high class, printed l mM, probably uM, Motif I definitive Kd 200-600 nM

Row | Sequence | Kd [1] | Kd [2]
1 | GGGAGAUAAGAAUAAACGCUCAAACAAAUGUGCUCCCUUGGACGAAGUUAACUCGGCGGUUCGACAGGAGGCUCACAACAGGC [FCN44] | > 0.001 mM | –
2 | GGGAGAUAAGAAUAAACGCUCAAGCAAUCUCGGACUAGACUAACGACCUUCGUUUGACGCUCAUUCGACAGGAGGCUCACAACAGGC [FC51] | – | < 0.001 mM
3 | GGGAGAUAAGAAUAAACGCUCAAAAGAAGCUGGCGACAGGCGAAAAGCAGACUUGAGGGGAAUUCGACAGGAGGCUCACAACAGGC [FCN55] | > 0.001 mM | –
4 | GGGAGAUAAGAAUAAACGCUCAAACAAAUGUGCGCCCUUGGACGAAGUUAACUCGGACGGUUGUUCGACAGGAGGCUCACAACAGGC [FC72] | > 0.001 mM | –
5 | GGGAGAUAAGAAUAAACGCUCAAACAAAUGUGCGCCCUUGGACGAAGUUAACUCGGACGGUUCUUCGACAGGAGGCUCACAACAGGC [FC69] | > 0.001 mM | –
6 | GGGAGAUAAGAAUAAACGCUCAAAAAGUGUAGCCUUCCUGGACUGUAGGUACUAGGACGGUCCUUCGACAGGAGGCUCACAACAGGC [FCN38] | > 0.001 mM | –
7 | GGGAGAUAAGAAUAAACGCUCAAAGUAGGUGAGGCUUCUGGACUGAAGUAACUAGGUCGGUUCUUCGACAGGAGGCUCACAACAGGC [FCN72] | > 0.001 mM | –
8 | GGGAGAUAAGAAUAAACGCUCAAGCAAUCUCGGACUAGACUAACGACCUUGGUUUGACGCUAAUUCGACAGGAGGCUCACAACAGGC [FC50] | – | < 0.001 mM
9 | GGGAGAUAAGAAUAAACGCUCAAGCAAUCUCGGACUAGACUAACGACCUUCGUUUGACGCUUAUUCGACAGGAGGCUCACAACAGGC [FCN14] | – | < 0.001 mM
10 | GGGAGAUAAGAAUAAACGCUCAAACAAAUGUGCGCCCUUGGACGAAGUUAACUCGGACGGUUCUUCGACAGGAGGCUCACAACAGGC [FCN16] | > 0.001 mM | –
11 | GGGAGAUAAGAAUAAACGCUCAAUAGGAGCCUAGCAGCCCCUGCAUCGAUCACUAGGAUGGUUUUCGACAGGAGGCUCACAACAGGC [FCN30] | > 0.001 mM | –
12 | GGGAGAUAAGAAUAAACGCUCAAGCAAUCUCGGACUAGGCUAACGACCUUUGUUUGACGCUCAUUCGACAGGAGGCUCACAACAGGC [FCN11] | – | < 0.001 mM
13 | GGGAGAUAAGAAUAAACGCUCAAAAGUCUGAGACUCCUGGACUGAAUUAGCUAGGACGGCUGUUCGACAGGAGGCUCACAACAGGC [FCN19] | > 0.001 mM | –

The exact form of at least one protein or probe is not confirmed.
